No constants are given. Whether binding was seen depends on the method and setting. In cells and extracts the contact can be indirect. These calls come from enrichment with a bait or labelling near it, and not all partners need be listed. Tags and fused reporters may be left off the sequences shown.

For the experiment, the target named is T1, OASL-myc (human) (UniProt Q15646).
T1 sequence: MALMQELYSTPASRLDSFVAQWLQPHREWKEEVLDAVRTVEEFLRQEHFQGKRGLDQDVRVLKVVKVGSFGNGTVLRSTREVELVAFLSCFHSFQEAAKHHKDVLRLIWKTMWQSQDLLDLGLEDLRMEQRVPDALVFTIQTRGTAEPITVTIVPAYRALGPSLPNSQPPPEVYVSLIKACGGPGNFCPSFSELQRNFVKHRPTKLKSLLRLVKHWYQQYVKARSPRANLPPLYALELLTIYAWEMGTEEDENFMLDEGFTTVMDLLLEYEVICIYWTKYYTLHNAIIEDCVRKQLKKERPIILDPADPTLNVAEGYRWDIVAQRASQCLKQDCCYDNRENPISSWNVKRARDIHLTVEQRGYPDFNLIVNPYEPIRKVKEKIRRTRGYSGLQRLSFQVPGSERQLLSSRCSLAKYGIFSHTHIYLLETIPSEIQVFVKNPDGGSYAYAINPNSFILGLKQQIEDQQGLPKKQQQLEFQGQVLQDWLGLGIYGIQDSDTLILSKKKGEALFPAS
The experiment can be described thus: affinity purification with mass spectrometry; q-AP-MS: SILAC-labelled HeLa S3 cells transfected with the myc-tagged bait or LacZ-myc (forward and crossover); NP-40 lysis buffer with benzonase, 1 h at 4°C; anti-c-myc microbeads; LC-MS/MS.

B1: RNA-binding protein 28 (protein, UniProt Q9NW13 1-759)
chain: MAGLTLFVGRLPPSARSEQLEELFSQVGPVKQCFVVTEKGSKACRGFGYVTFSMLEDVQRALKEITTFEGCKINVTVAKKKLRNKTKEKGKNENSECPKKEPKAKKAKVADKKARLIIRNLSFKCSEDDLKTVFAQFGAVLEVNIPRKPDGKMRGFGFVQFKNLLEAGKALKGMNMKEIKGRTVAVDWAVAKDKYKDTQSVSAIGEEKSHESKHQESVKKKGREEEDMEEEENDDDDDDDDEEDGVFDDEDEEEENIESKVTKPVQIQKRAVKRPAPAKSSDHSEEDSDLEESDSIDDGEELAQSDTSTEEQEDKAVQVSNKKKRKLPSDVNEGKTVFIRNLSFDSEEEELGELLQQFGELKYVRIVLHPDTEHSKGCAFAQFMTQEAAQKCLLAASPENEAGGLKLDGRQLKVDLAVTRDEAAKLQTTKVKKPTGTRNLYLAREGLIRAGTKAAEGVSAADMAKRERFELLKHQKLKDQNIFVSRTRLCLHNLPKAVDDKQLRKLLLSATSGEKGVRIKECRVMRDLKGVHGNMKGQSLGYAFAEFQEHEHALKALRLINNNPEIFGPLKRPIVEFSLEDRRKLKMKELRIQRSLQKMRSKPATGEPQKGQPEPAKDQQQKAAQHHTEEQSKVPPEQKRKAGSTSWTGFQTKAEVEQVELPDGKKRRKVLALPSHRGPKIRLRDKGKVKPVHPKKPKPQINQWKQEKQQLSSEQVSRKKAKGNKTETRFNQLVEQYKQKLLGPSKGAPLAKRSKWFDS
As for B1, the binding entry is on record as “binds”.

B2: Ribosome production factor 2 homolog (protein, UniProt Q9H7B2 1-306)
chain: MDTLDRVVKPKTKRAKRFLEKREPKLNENIKNAMLIKGGNANATVTKVLKDVYALKKPYGVLYKKKNITRPFEDQTSLEFFSKKSDCSLFMFGSHNKKRPNNLVIGRMYDYHVLDMIELGIENFVSLKDIKNSKCPEGTKPMLIFAGDDFDVTEDYRRLKSLLIDFFRGPTVSNIRLAGLEYVLHFTALNGKIYFRSYKLLLKKSGCRTPRIELEEMGPSLDLVLRRTHLASDDLYKLSMKMPKALKPKKKKNISHDTFGTTYGRIHMQKQDLSKLQTRKMKGLKKRPAERITEDHEKKSKRIKKN
Regarding B2, the binding entry is reported as “binds”.

B3: Putative ribosomal RNA methyltransferase NOP2 (protein, UniProt P46087 1-812)
chain: MGRKLDPTKEKRGPGRKARKQKGAETELVRFLPAVSDENSKRLSSRARKRAAKRRLGSVEAPKTNKSPEAKPLPGKLPKGISAGAVQTAGKKGPQSLFNAPRGKKRPAPGSDEEEEEEDSEEDGMVNHGDLWGSEDDADTVDDYGADSNSEDEEEGEALLPIERAARKQKAREAAAGIQWSEEETEDEEEEKEVTPESGPPKVEEADGGLQINVDEEPFVLPPAGEMEQDAQAPDLQRVHKRIQDIVGILRDFGAQREEGRSRSEYLNRLKKDLAIYYSYGDFLLGKLMDLFPLSELVEFLEANEVPRPVTLRTNTLKTRRRDLAQALINRGVNLDPLGKWSKTGLVVYDSSVPIGATPEYLAGHYMLQGASSMLPVMALAPQEHERILDMCCAPGGKTSYMAQLMKNTGVILANDANAERLKSVVGNLHRLGVTNTIISHYDGRQFPKVVGGFDRVLLDAPCSGTGVISKDPAVKTNKDEKDILRCAHLQKELLLSAIDSVNATSKTGGYLVYCTCSITVEENEWVVDYALKKRNVRLVPTGLDFGQEGFTRFRERRFHPSLRSTRRFYPHTHNMDGFFIAKFKKFSNSIPQSQTGNSETATPTNVDLPQVIPKSENSSQPAKKAKGAAKTKQQLQKQQHPKKASFQKLNGISKGADSELSTVPSVTKTQASSSFQDSSQPAGKAEGIREPKVTGKLKQRSPKLQSSKKVAFLRQNAPPKGTDTQTPAVLSPSKTQATLKPKDHHQPLGRAKGVEKQQLPEQPFEKAAFQKQNDTPKGPQPPTVSPIRSSRPPPAKRKKSQSRGNSQLLLS
Turning to B3, the binding entry is recorded as “binds”.

B4: Probable rRNA-processing protein EBP2 (protein, UniProt Q99848 1-306)
chain: MDTPPLSDSESESDESLVTDRELQDAFSRGLLKPGLNVVLEGPKKAVNDVNGLKQCLAEFKRDLEWVERLDVTLGPVPEIGGSEAPAPQNKDQKAVDPEDDFQREMSFYRQAQAAVLAVLPRLHQLKVPTKRPTDYFAEMAKSDLQMQKIRQKLQTKQAAMERSEKAKQLRALRKYGKKVQTEVLQKRQQEKAHMMNAIKKYQKGFSDKLDFLEGDQKPLAQRKKAGAKGQQMRKGPSAKRRYKNQKFGFGGKKKGSKWNTRESYDDVSSFRAKTAHGRGLKRPGKKGSNKRPGKRTREKMKNRTH
Consider B4, for which the binding result was “binds”.

B5: RNA-binding protein 34 (protein, UniProt P42696 1-430)
chain: MALEGMSKRKRKRSVQEGENPDDGVRGSPPEDYRLGQVASSLFRGEHHSRGGTGRLASLFSSLEPQIQPVYVPVPKQTIKKTKRNEEEESTSQIERPLSQEPAKKVKAKKKHTNAEKKLADRESALASADLEEEIHQKQGQKRKNSQPGVKVADRKILDDTEDTVVSQRKKIQINQEEERLKNERTVFVGNLPVTCNKKKLKSFFKEYGQIESVRFRSLIPAEGTLSKKLAAIKRKIHPDQKNINAYVVFKEESAATQALKRNGAQIADGFRIRVDLASETSSRDKRSVFVGNLPYKVEESAIEKHFLDCGSIMAVRIVRDKMTGIGKGFGYVLFENTDSVHLALKLNNSELMGRKLRVMRSVNKEKFKQQNSNPRLKNVSKPKQGLNFTSKTAEGHPKSLFIGEKAVLLKTKKKGQKKSGRPKKQRKQK
Consider B5, for which the binding entry is “binds”.

Values taken from article PMC5851652.
